Reference: PubChem BioAssay AID226 (DTP/NCI, 2004)
The list is a part of this screen's results and no random one: it gathers tests that were run many times, whatever their T/C, doses with no T/C, and many T/C values between a quarter and a half above the control. Other doses and runs of a compound stand elsewhere. T/C: endpoint of the treated group in % of that of the vehicle group. Some doses have a count of surviving animals in place of a T/C: the source holds a T/C of zero for them, seemingly a mark for toxic or unscored doses. Some doses without a T/C left all or most animals alive at the check, yet need not have been tolerated: survival well below the control is almost never listed, so the zero probably covers shortened survival too. Counts of survivors are from the toxicity check (mostly the fifth day) where no day follows; animals may have died later. Schedule codes are those of the source, read here as Q, the interval in days (D) or hours (H), X, the number of doses. Counts like (3×) count equal records among those shown. Some entries were tested several times; their values stand side by side, smallest first. Where survival is the endpoint, this PubChem deposit counts one and a half times the control or more as active, and values a quarter to a half above the control carry no call in these data; other NCI protocols may use other cut-offs. Some T/C values are followed by the survivors on the day toxicity was checked, most often the fifth; without a count, all were alive then.

Test system: B6C3F1 mice, intracerebral ependymoblastoma, median survival T/C
Assay: NCI In Vivo Anticancer Drug Screen. Data for tumor model Ependymoblastoma (intracerebral) in B6C3F1 mice
Conditions: T/C endpoint: median survival time, higher T/C = longer survival
Protocol: The antitumor activity of compounds was measured in mice bearing transplantable tumors. Survival or tumor size were measured and the results are expressed as the measurement made in the treated group (T) divided by the measurement made in the vehicle treated control group (C). The tumor model used in this assay is Ependymoblastoma (intracerebral) in B6C3F1 mice

[1] = dose: 100.0 mg/kg/injection, schedule: Q01DX009 (ip), vehicle: saline with Tween-80
[2] = dose: 256.0 mg/kg/injection, schedule: Q01DX005 (ip), vehicle: saline
[3] = dose: 12.5 mg/kg/injection, schedule: Q01DX005 (ip), vehicle: Klucel (hydroxypropylcellulose) (HPC)
[4] = dose: 25.0 mg/kg/injection, schedule: Q01DX005 (ip), vehicle: Klucel (hydroxypropylcellulose) (HPC)
[5] = dose: 50.0 mg/kg/injection, schedule: Q01DX005 (ip), vehicle: Klucel (hydroxypropylcellulose) (HPC)
[6] = dose: 100.0 mg/kg/injection, schedule: Q01DX005 (ip), vehicle: Klucel (hydroxypropylcellulose) (HPC)
[7] = dose: 96.0 mg/kg/injection, schedule: Q01DX001 (ip), vehicle: saline

O=NN(CCCl)C(=O)NC1[C@H](O)CCC[C@@H]1O (stereo not given in full)
T/C (dose: 7.2 mg/kg/injection, schedule: Q01DX001 (ip), vehicle: saline): 135 % of control
survivor count (dose: 12.0 mg/kg/injection, schedule: Q01DX005 (ip), vehicle: saline): 10 of 10
survivor count (dose: 20.0 mg/kg/injection, schedule: Q01DX005 (ip), vehicle: Klucel (hydroxypropylcellulose) (HPC)): 4 of 10 on day 6
survivor count (dose: 20.0 mg/kg/injection, schedule: Q01DX005 (ip), vehicle: saline): 10 of 10
survivor count (dose: 33.3 mg/kg/injection, schedule: Q01DX001 (ip), vehicle: saline): 10 of 10 on day 6
survivor count (dose: 33.3 mg/kg/injection, schedule: Q01DX005 (ip), vehicle: saline): 9 of 10

COc1cc(NC(=O)CN(CCCl)CCCl)cc(OC)c1OC
survivor count [1]: 10 of 10
survivor count (dose: 200.0 mg/kg/injection, schedule: Q01DX009 (ip), vehicle: saline with Tween-80): 7 of 10

O=c1[nH]cc(F)c(=O)[nH]1
survivor count (dose: 64.0 mg/kg/injection, schedule: Q01DX005 (ip), vehicle: saline): 10 of 10
survivor count (dose: 128.0 mg/kg/injection, schedule: Q01DX005 (ip), vehicle: saline): 10 of 10
survivor count [2]: 10 of 10

O=[n+]1c2ccccc2n([O-])c2cc(Cl)ccc21
survivor count (dose: 200.0 mg/kg/injection, schedule: Q01DX005 (ip), vehicle: saline with Tween-80): 10 of 10
survivor count (dose: 400.0 mg/kg/injection, schedule: Q01DX005 (ip), vehicle: saline with Tween-80): 0 of 10

O=P1(NCCCl)OCCCN1CCCl (stereo not given)
T/C (dose: 400.0 mg/kg/injection, schedule: Q01DX001 (ip), vehicle: water): 125 % of control

COc1ccc(C[C@H](N)C(=O)NC2C(CO)OC(n3cnc4c(N(C)C)ncnc43)C2O)cc1 (stereo not given in full)
survivor count [2]: 2 of 10

CCCC(=O)OCC1OC(n2cnc3c(=S)nc(N)[nH]c32)C(OC(=O)CCC)C1OC(=O)CCC (stereo not given)
T/C [3]: 125 % of control [9 of 10 alive]
survivor count [3]: 10 of 10
survivor count [4]: 10 of 10
survivor count [5]: 10 of 10
survivor count [6]: 10 of 10

CN(C)CCCNc1c2ccccc2nc2cccc([N+](=O)[O-])c12
survivor count (dose: 0.12 mg/kg/injection, schedule: Q01DX005 (ip), vehicle: saline): 10 of 10
survivor count (dose: 0.25 mg/kg/injection, schedule: Q01DX005 (ip), vehicle: saline): 9 of 10 and 10 of 10 (2×)
survivor count (dose: 0.5 mg/kg/injection, schedule: Q01DX005 (ip), vehicle: saline): 3 of 10, 5 of 10, 8 of 10
survivor count (dose: 1.0 mg/kg/injection, schedule: Q01DX005 (ip), vehicle: saline): 0 of 10 (2×) and 3 of 10
survivor count (dose: 250.0 micrograms/kg/injection, schedule: Q01DX005 (ip), vehicle: saline): 10 of 10 (2×)

O=c1[nH]c(=O)n(C2CC(O)C(CO)O2)cc1C(F)(F)F (stereo not given)
survivor count (dose: 64.0 mg/kg/injection, schedule: Q01DX005 (ip), vehicle: Klucel (hydroxypropylcellulose) (HPC)): 10 of 10
survivor count (dose: 256.0 mg/kg/injection, schedule: Q01DX005 (ip), vehicle: Klucel (hydroxypropylcellulose) (HPC)): 10 of 10
survivor count (dose: 512.0 mg/kg/injection, schedule: Q01DX005 (ip), vehicle: Klucel (hydroxypropylcellulose) (HPC)): 9 of 10

Cn1cnc([N+](=O)[O-])c1Sc1nc(N)nc2c1ncn2C1OC(CO)C(O)C1O (stereo not given)
survivor count (dose: 50.0 mg/kg/injection, schedule: Q01DX005 (ip), vehicle: suspension in saline): 10 of 10

C[n+]1c2ccccc2nc2c(N)cc(N)cc21
T/C (dose: 8.0 mg/kg/injection, schedule: Q01DX001 (ip), vehicle: saline): 97 [survivors not given], 98 [survivors not given], 99 [survivors not given], 103 % of control
T/C (dose: 16.0 mg/kg/injection, schedule: Q01DX001 (ip), vehicle: saline): 94 [survivors not given], 101, 106 [survivors not given], 107 % of control [survivors not given]
T/C (dose: 32.0 mg/kg/injection, schedule: Q01DX001 (ip), vehicle: saline): 102 [survivors not given], 103 [survivors not given], 104, 104 % of control [survivors not given]
T/C (dose: 64.0 mg/kg/injection, schedule: Q01DX001 (ip), vehicle: saline): 97 [survivors not given], 98 [survivors not given], 103, 105 % of control [survivors not given]

CC[n+]1c(-c2ccccc2)c2cc(N)ccc2c2ccc(N)cc21
T/C (dose: 24.0 mg/kg/injection, schedule: Q01DX001 (ip), vehicle: saline): 92 [survivors not given], 105 [survivors not given], 107, 110 % of control [survivors not given]
T/C (dose: 48.0 mg/kg/injection, schedule: Q01DX001 (ip), vehicle: saline): 95 [survivors not given], 100 [9 of 10 alive], 101 [survivors not given], 110 % of control [survivors not given]
T/C [7]: 98 % of control [survivors not given]
survivor count [7]: 8 of 10
survivor count (dose: 192.0 mg/kg/injection, schedule: Q01DX001 (ip), vehicle: saline): 0 of 10

O=NN(CCF)C(=O)NCCO
survivor count (dose: 40.0 mg/kg/injection, schedule: Q01DX005 (ip), vehicle: Klucel (hydroxypropylcellulose) (HPC)): 9 of 10 on day 6
survivor count (dose: 100.0 mg/kg/injection, schedule: Q01DX001 (ip), vehicle: saline): 8 of 10 on day 6

CC1(C)OC2C(COC(=O)c3ccc([N+](=O)[O-])cc3)OC(NC(=O)N(CCCl)N=O)C2O1 (stereo not given)
T/C (dose: 2.5 mg/kg/injection, schedule: Q01DX009 (ip), vehicle: saline): 128 % of control
T/C (dose: 3.12 mg/kg/injection, schedule: Q01DX009 (ip), vehicle: saline with Tween-80): 129 % of control
T/C (dose: 6.25 mg/kg/injection, schedule: Q01DX009 (ip), vehicle: saline with Tween-80): 141 % of control
survivor count (dose: 50.0 mg/kg/injection, schedule: Q01DX009 (ip), vehicle: saline with Tween-80): 8 of 9
survivor count [1]: 10 of 10

Nc1nc(SCc2ccccc2Cl)c2ncn(C3OC(CO)C(O)C3O)c2n1 (stereo not given)
T/C [4]: 131 % of control
T/C [5]: 144 % of control
survivor count [6]: 9 of 10 and 10 of 10
survivor count (dose: 200.0 mg/kg/injection, schedule: Q01DX005 (ip), vehicle: Klucel (hydroxypropylcellulose) (HPC)): 10 of 10
survivor count (dose: 400.0 mg/kg/injection, schedule: Q01DX005 (ip), vehicle: Klucel (hydroxypropylcellulose) (HPC)): 10 of 10
